This passage reports binding results from article PMC12825198.

The chains behind the UniProt entries cited, without tags or fusion partners. Where a name states a change or a piece, a line headed by the entry shows the natural chain unless it says otherwise.
UniProt P05556: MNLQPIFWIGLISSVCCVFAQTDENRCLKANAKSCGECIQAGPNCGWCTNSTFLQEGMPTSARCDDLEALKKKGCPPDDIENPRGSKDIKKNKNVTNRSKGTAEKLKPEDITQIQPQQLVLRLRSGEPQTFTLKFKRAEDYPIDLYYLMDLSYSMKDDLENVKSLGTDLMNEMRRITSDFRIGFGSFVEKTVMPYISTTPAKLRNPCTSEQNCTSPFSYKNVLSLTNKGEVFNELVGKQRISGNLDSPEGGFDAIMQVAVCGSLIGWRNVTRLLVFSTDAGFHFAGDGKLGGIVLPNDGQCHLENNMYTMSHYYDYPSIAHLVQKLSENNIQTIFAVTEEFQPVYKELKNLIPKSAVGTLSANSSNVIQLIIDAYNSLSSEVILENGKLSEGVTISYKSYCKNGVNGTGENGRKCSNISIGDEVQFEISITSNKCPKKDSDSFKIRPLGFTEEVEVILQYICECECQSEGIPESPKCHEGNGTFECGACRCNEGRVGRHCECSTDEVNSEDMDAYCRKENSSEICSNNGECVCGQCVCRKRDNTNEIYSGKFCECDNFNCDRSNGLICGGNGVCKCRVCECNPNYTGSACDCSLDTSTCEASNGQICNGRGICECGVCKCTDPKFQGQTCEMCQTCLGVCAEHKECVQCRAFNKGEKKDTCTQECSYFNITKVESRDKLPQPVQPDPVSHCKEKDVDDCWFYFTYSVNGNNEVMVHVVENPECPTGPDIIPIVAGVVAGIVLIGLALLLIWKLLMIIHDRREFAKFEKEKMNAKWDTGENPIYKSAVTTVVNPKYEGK

The target in experiment [1] is T1, peroxidasin (PXDN) (human (endogenous in HK1)) (UniProt Q92626).
T1 sequence: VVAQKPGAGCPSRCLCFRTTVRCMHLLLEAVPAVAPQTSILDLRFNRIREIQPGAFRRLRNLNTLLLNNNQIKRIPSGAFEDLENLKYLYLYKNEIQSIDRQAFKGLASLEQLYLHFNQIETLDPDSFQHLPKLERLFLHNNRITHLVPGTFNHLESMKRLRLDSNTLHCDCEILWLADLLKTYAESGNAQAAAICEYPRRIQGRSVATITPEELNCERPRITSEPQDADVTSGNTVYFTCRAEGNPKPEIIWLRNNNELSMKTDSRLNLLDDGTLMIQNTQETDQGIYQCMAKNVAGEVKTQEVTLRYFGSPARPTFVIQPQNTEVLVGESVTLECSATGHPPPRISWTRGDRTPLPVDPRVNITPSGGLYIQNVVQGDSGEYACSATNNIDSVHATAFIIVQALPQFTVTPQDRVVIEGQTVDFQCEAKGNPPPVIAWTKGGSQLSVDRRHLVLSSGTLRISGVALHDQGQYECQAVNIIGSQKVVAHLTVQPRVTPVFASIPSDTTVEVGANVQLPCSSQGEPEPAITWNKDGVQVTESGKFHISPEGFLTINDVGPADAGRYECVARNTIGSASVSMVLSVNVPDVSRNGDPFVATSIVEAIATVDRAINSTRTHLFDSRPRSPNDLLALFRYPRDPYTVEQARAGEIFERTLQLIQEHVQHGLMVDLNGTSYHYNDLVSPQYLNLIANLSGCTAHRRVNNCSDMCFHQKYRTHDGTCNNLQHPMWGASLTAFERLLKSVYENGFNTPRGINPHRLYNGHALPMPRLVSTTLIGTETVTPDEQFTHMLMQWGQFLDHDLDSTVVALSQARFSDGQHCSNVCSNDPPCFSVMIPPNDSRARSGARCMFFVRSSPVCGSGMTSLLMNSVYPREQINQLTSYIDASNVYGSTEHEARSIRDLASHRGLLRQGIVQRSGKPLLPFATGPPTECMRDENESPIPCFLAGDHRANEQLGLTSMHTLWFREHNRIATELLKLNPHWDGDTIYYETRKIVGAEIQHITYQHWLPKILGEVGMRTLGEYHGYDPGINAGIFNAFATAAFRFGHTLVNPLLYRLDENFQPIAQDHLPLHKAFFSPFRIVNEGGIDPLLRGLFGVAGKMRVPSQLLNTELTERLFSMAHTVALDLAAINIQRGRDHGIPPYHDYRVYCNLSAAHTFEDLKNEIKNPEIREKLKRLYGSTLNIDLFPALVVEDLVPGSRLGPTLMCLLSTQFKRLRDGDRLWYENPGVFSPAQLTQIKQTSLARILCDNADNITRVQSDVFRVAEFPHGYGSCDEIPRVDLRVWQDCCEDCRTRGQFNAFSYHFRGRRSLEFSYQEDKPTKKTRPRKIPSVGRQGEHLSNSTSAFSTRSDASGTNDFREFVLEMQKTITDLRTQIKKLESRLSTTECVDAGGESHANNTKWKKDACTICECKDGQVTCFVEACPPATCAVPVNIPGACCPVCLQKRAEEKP
Kind of experiment: co-IP; lysate of 2 x 10^7 cells incubated overnight at 4 C with anti-PXDN antibody (5 ug), protein A/G magnetic beads 2 h at 4 C, immunoblot; IgG as control.

For experiment [2], the target named is T2, GST-tagged recombinant human PXDN protein (human) (UniProt Q92626).
T2 sequence: T1 sequence
Kind of experiment: pull-down; lysate of 2 x 10^7 cells incubated overnight at 4 C with GST-tagged recombinant human PXDN (5 ug), anti-GST magnetic beads 2 h at 4 C, immunoblot; only the target purified. (In general: A western blot detects proteins with antibodies after separation by electrophoresis.)

No constants are given. Whether binding was seen depends on the method and setting. In cells and extracts the contact can be indirect. Some results given as binding are weak or reduced against the parent protein; the word gives no strength. For some assays here: Where a sequence is shown, tags or fusion partners need not be part of it.

Take “ITGB1 (from UniProt P05556 21-798) (receptor)”: the binding entry in experiment [1] and in experiment [2] was “binds” each time.
